Reference: patent US8614247B2, “Methods for preventing, attenuating or treating pulmonary hypertension using a serotonin transporter inhibitor, and pharmaceutical compositions for the treatment thereof” (Institut National de la Sante et de la Recherche Medicale, priority 2003, dated 2013)
Read-outs that look alike come from different tables or passages of the source.

Tested on: mice exposed to chronic hypoxia
Type: in vivo, mice (C57BL6/J)
Conditions: for LV+S weight in hypoxic mice versus mice under normoxic conditions: end of exposure to chronic hypoxia; for LV + S weight: two-week treatment under continuous hypoxia
Description: All experiments were performed using adult male mice (C57BL6/J, 8 weeks old) in conformity with the institutional guidelines that are in compliance with national and international laws and policies. […] To establish the hypoxic environment, the chamber was flushed with a mixture of room air and nitrogen, and the gas was recirculated. The chamber environment was monitored using an oxygen analyzer (Servomex OA150, Crowborough, England). Carbon dioxide was removed by soda lime granules, and excess humidity was prevented by cooling the recirculation circuit. The chamber temperature was maintained at 22-24° C. The chamber was opened every other day for 1 hour to clean the cages and replenish food and water supplies. Normoxic mice were kept in the same room, with the same light-dark cycle. […] After incision of the abdomen and diaphragm, a 26-gauge needle connected to a pressure transducer was inserted into the right ventricle, and RVSP was recorded immediately. Blood was then sampled for hematocrit determination. […] The right ventricle (RV) was dissected from the left ventricle+septum (LV+S), and these dissected samples were weighed. The lungs were fixed by intratracheal infusion of 4% aqueous buffered formalin at a pressure of 23 cm H2O. The entire specimen was immersed in a bath of the same fixative for one week. A midsagittal slice of the right lung including the apical, azygous and diaphragmatic lobes was processed for paraffin embedding. Sections (5 μm thick) were cut for light microscopy and stained with hematoxylin-phloxin-saffron and orcein-picroindigo-carmine. In each mouse, a total of 50-60 […] vessels accompanying either alveolar ducts or alveoli were analyzed by an observer blinded to treatment. Each vessel was categorized as nonmuscular (no evidence of any vessel wall muscularization), partially muscular (SMCs identifiable in less than three-fourths of the vessel circumference), or fully muscular (SMCs in more than three-fourths of the vessel circumference). […] The percentage of pulmonary vessels in each muscularization category was determined by dividing the number of vessels in that category by the total number counted in the same experimental group. […] The animals were treated once a day during the two-week exposure to hypoxia.

Row | SMILES | LV+S weight in hypoxic mice versus mice under normoxic conditions | LV + S weight (2 mg/kg/day) [mg] | LV + S weight (10 mg/kg/day) [mg]
1 | CNCCC(Oc1ccc(C(F)(F)F)cc1)c1ccccc1 (stereo not shown) [fluoxetine] | did not differ |  | 
2 | COc1ccc(NC(=O)c2ccc(-c3ccc(-c4noc(C)n4)cc3C)cc2)cc1N1CCN(C)CC1 [GR127935, 2′-methyl-4′-(5-methyl-[1,2,4]oxadiazol-3-yl)-biphenyl-4-carboxylic acid [4-methoxy-3-(4-methyl-piperazine-1-yl)-phenyl]amide] | did not differ | 73.4 ± 3.9 | 74.0 ± 4.8
